{
  "source": "patent US9079048B2",
  "about": "(Lipotec, S.A., priority 2005, dated 2015)",
  "experiment": "general procedure: Fmoc solid-phase peptide synthesis; 2-chlorotrityl resin",
  "details": "whole synthesis, gradient 20 to 50% MeCN (+0.07% TFA) in H2O (+0.1% TFA) in 30 minutes, scale 8.8 mmol",
  "data": [
    {"substance": "H-Tyr-Gly-Gly-Phe-Leu-OH", "values": [
      {"measurement": "crude HPLC purity", "value": "greater than 98%"}
    ]}
  ]
}
